Record: PubChem BioAssay AID1259308 (NCATS, 2017)

Assay: 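Knock-downs that increase output of a recombinant reporter protein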 (primary screen)
Cells: human HEK293 embryonic kidney cells stably expressing firefly luciferase (HEK-CMV-Luc2-Hygro)
Reagents: single siRNA against human genes, 0.8 pmol siRNA per well
Timing: 72 h
Detection: 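Reporter luminescence and viable-cell signal on separate replicate plates, given as percent of non-targeting control and median/MAD z-scores, plus per-cell luciferase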
Direction: total luciferase, z-score and total luciferase, % of control: higher = more reporter protein produced
Rule for the call: 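Active when the median/MAD z-score for overall luciferase is greater than 3; a gene was taken forward for validation with new siRNAs if at least two of its three siRNAs passed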
Meaning of the calls: active = raised luciferase; inactive = no rise
Here is one part, drawn at random, of about 59,000 reagents tested. About 1,510 of them (2.6%) were called active. 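Calls use total luciferase alone and ignore viability, so some active siRNAs may act by altering cell number.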 Entries without a mark were called inactive. Reagents against one gene are numbered here. Further read-outs or replicates are left out here.

{"Gene":"GSDMB (GeneID 55876)","reagent":1,"total luciferase, z-score":1.37,"total luciferase, % of control":109}
{"Gene":"GSDMB (GeneID 55876)","reagent":2,"total luciferase, z-score":-0.055,"total luciferase, % of control":80.8}
{"Gene":"GSDMB (GeneID 55876)","reagent":3,"total luciferase, z-score":1.15,"total luciferase, % of control":105}
{"Gene":"MAML2 (GeneID 84441)","reagent":1,"total luciferase, z-score":0.531,"total luciferase, % of control":92.4}
{"Gene":"MAML2 (GeneID 84441)","reagent":2,"total luciferase, z-score":0.523,"total luciferase, % of control":92.3}
{"Gene":"MAML2 (GeneID 84441)","reagent":3,"total luciferase, z-score":-0.473,"total luciferase, % of control":72.5}
{"Gene":"LCOR (GeneID 84458)","reagent":1,"total luciferase, z-score":-1.03,"total luciferase, % of control":61.5}
{"Gene":"LCOR (GeneID 84458)","reagent":2,"total luciferase, z-score":1.39,"total luciferase, % of control":109}
{"Gene":"LCOR (GeneID 84458)","reagent":3,"total luciferase, z-score":-0.929,"total luciferase, % of control":63.4}
{"Gene":"LCOR (GeneID 84458)","reagent":4,"total luciferase, z-score":0.168,"total luciferase, % of control":85.2}
{"Gene":"LCOR (GeneID 84458)","reagent":5,"total luciferase, z-score":-0.0222,"total luciferase, % of control":81.4}
{"Gene":"LCOR (GeneID 84458)","reagent":6,"total luciferase, z-score":-0.796,"total luciferase, % of control":66.1}
{"Gene":"NRSN2 (GeneID 80023)","reagent":1,"total luciferase, z-score":-0.691,"total luciferase, % of control":68.1}
{"Gene":"NRSN2 (GeneID 80023)","reagent":2,"total luciferase, z-score":2.28,"total luciferase, % of control":127}
{"Gene":"NRSN2 (GeneID 80023)","reagent":3,"total luciferase, z-score":1.45,"total luciferase, % of control":111}
{"Gene":"NCKAP5L (GeneID 57701)","reagent":1,"total luciferase, z-score":-0.304,"total luciferase, % of control":75.8}
{"Gene":"NCKAP5L (GeneID 57701)","reagent":2,"total luciferase, z-score":0.511,"total luciferase, % of control":92.1}
{"Gene":"NCKAP5L (GeneID 57701)","reagent":3,"total luciferase, z-score":-2.04,"total luciferase, % of control":41.4}

Part of the list above, limited to “total luciferase, % of control”:
NRSN2 (GeneID 80023) #2: 127
NRSN2 (GeneID 80023) #3: 111

Further results follow:
{"Gene":"OR2A12 (GeneID 346525)","reagent":1,"total luciferase, z-score":1.22,"total luciferase, % of control":106}
{"Gene":"OR2A12 (GeneID 346525)","reagent":2,"total luciferase, z-score":0.217,"total luciferase, % of control":86.2}
{"Gene":"OR2A12 (GeneID 346525)","reagent":3,"total luciferase, z-score":-0.358,"total luciferase, % of control":74.8}
{"Gene":"C11orf24 (GeneID 53838)","reagent":1,"total luciferase, z-score":1.71,"total luciferase, % of control":116}
{"Gene":"C11orf24 (GeneID 53838)","reagent":2,"total luciferase, z-score":"5.48 (active)","total luciferase, % of control":191}
{"Gene":"C11orf24 (GeneID 53838)","reagent":3,"total luciferase, z-score":0.677,"total luciferase, % of control":95.4}
{"Gene":"WDR48 (GeneID 57599)","reagent":1,"total luciferase, z-score":-0.163,"total luciferase, % of control":78.6}
{"Gene":"WDR48 (GeneID 57599)","reagent":2,"total luciferase, z-score":0.615,"total luciferase, % of control":94.1}
{"Gene":"WDR48 (GeneID 57599)","reagent":3,"total luciferase, z-score":-0.106,"total luciferase, % of control":79.8}
{"Gene":"ZNF568 (GeneID 374900)","reagent":1,"total luciferase, z-score":-1.32,"total luciferase, % of control":55.6}
{"Gene":"ZNF568 (GeneID 374900)","reagent":2,"total luciferase, z-score":0.116,"total luciferase, % of control":84.2}
{"Gene":"ZNF568 (GeneID 374900)","reagent":3,"total luciferase, z-score":1.42,"total luciferase, % of control":110}
{"Gene":"MPTX1 (GeneID 649458)","reagent":1,"total luciferase, z-score":0.00181,"total luciferase, % of control":81.9}
{"Gene":"MPTX1 (GeneID 649458)","reagent":2,"total luciferase, z-score":-1.4,"total luciferase, % of control":54}
{"Gene":"MPTX1 (GeneID 649458)","reagent":3,"total luciferase, z-score":1.75,"total luciferase, % of control":117}
